The record followed here is paper PMC2738650.

The exact form of at least one protein or probe is not confirmed. For some assays here: No signal at the amounts used counts as a negative.

Data set [1] concerns GST-KLF2. Description: EMSA. The settings on record: 10 ug protein, LightShift Chemiluminescent EMSA Kit (Pierce), manufacturer's instructions, pH and temperature not stated, recombinant protein, protein details: GST (N-terminal, pGEX-4T-1), label: biotin (probe), unlabeled as competitor.
For data set [2], the system named is GST-KLF2. Description: competition with a labelled probe. The settings on record: 200-fold excess unlabeled mutant vs biotinylated WT probe; LightShift Chemiluminescent EMSA Kit (Pierce), manufacturer's instructions; 10 ug protein; pH and temperature not stated; recombinant protein; protein details: GST (N-terminal, pGEX-4T-1); label: none (cold competitor).

For “ACTCACTACCGACCACCCGCAAACAGCAGG (double strand) [CXCR4 promoter -204/-175 CACCC probe (WT)]”, in data set [1], the binding result is on record as “binds”.

With “ACTCACTACCGACTGTTTGCAAACAGCAGG (double strand) [CXCR4 promoter -204/-175 mutated CACCC (Cold MU Pr)]”, the binding result in data set [2] is “no binding”.
